According to patent US8304371B2, “Insecticidal arylpyrrolines” (Bayer Cropscience AG, priority 2008, dated 2012):
Some of these results come from one statement about several compounds together.

Tested on: Strain of Green Peach Aphid (Mvzus persicas) which is Resistant to Organic Phosphorus and Carbamate Agents
Test: Test against resistant green peach aphid, spray on egg plant
Format: in vivo
Settings: active compound concentration 100 ppm; after 7 days
Protocol: Unless nomentioned otherwise, the test solutions were prepared as follows:
Containing as solvent: Dimethylformamide, 3 parts by weight; and as emulsifier: Polyoxyethylene alkyl phenyl ether, 1 part by weight
To prepare the test solution, 1 part by weight of an active compound is mixed with the above-mentioned amount of solvent containing the above-mentioned amount of emulsifier, and the mixture is diluted with water to the desired concentration.
About 30 to 50 of the resistant green peach aphids were inoculated per seedling, onto the leaves of egg plant at the two-true leaf stage, which plant had been cultivated in a pot having a diameter of 6 cm. One day after the inoculation, the test solution at the appropriate concentration was sprayed thereon in a sufficient amount using a spray gun. After the spraying, the plant pot was placed in a greenhouse at 28° C., and after 7 days, the insecticidal activity was calculated. An insecticidal activity of 100% means that all aphids were killed, whereas an insecticidal activity of […] means that no aphid was killed. The test was repeated two times.

| Structure (SMILES) | insecticidal activity [%] |
| --- | --- |
| N#Cc1cc(C2=NCC(c3cc(Cl)c(Cl)c(Cl)c3)(C(F)(F)F)C2)ccc1-n1cncn1 (centres unmarked) [1-78, 2-(1H-1,2,4-triazol-1-yl)-5-[3-(3,4,5-trichlorophenyl)-3-(trifluoromethyl)-3,4-dihydro-2H-pyrrol-5-yl]-benzonitrile] | ≥ 80 |
| N#Cc1cc(C2=NCC(c3cc(Cl)cc(Cl)c3)(C(F)(F)F)C2)ccc1-n1cncn1 (centres unmarked) [Compound No. 1-39, 5-[3-(3,5-dichlorophenyl)-3-(trifluoromethyl)-3,4-dihydro-2H-pyrrol-5-yl]-2-(1H-1,2,4-triazol-1-yl)benzonitrile] | ≥ 80 |
